Our source for the binding values is publication PMC5450317.

These are yes or no findings as the source states them, for the method shown. For some of these results: In cells and extracts the contact can be indirect. Some entries that bind do so weakly or less than the wild type. For some of these results: Tags and fused reporters may be left off the sequences shown.

Assay [1] concerns the target T1, GST-Dgp71WD (Drosophila) (UniProt Q9VJ57).
T1 sequence: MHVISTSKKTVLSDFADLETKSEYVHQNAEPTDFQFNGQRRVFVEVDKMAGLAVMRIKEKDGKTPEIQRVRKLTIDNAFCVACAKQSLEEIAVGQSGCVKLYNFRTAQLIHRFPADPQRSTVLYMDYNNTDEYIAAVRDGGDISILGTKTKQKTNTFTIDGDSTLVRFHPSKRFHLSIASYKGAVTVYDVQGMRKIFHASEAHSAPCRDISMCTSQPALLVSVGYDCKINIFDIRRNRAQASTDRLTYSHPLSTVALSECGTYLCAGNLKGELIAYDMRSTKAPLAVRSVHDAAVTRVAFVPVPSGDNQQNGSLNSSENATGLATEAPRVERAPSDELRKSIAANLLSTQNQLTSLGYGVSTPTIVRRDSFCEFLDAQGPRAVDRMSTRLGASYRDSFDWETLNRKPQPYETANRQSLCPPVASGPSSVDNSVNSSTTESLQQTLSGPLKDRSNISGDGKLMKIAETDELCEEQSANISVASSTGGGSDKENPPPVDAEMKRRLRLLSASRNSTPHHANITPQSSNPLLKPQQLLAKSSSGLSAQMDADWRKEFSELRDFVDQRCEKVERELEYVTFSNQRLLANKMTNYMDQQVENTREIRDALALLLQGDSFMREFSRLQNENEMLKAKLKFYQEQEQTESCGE
The assay can be described thus: pull-down; GST-Dgp71WD on Glutathione Agarose resin (10 µl) incubated with about 20 µg of a single His-tagged protein for 2 h at 4°C; washes in PBS with 150 mM imidazole and 0.1% IGEPAL CA-630; anti-His western blot; both purified. For orientation: Immunoblotting shows a protein as a band on a membrane.

Assay [2] deals with T1, GST-Dgp71WD (Drosophila). Put plainly: pull-down; as a3, but His-Dgt3^N incubated with GST-Dgp71WD resin in combination with His-Dgt5^N; both purified.
Assay [3] deals with T2, Dgt5 (Drosophila (endogenous in embryos)) (UniProt Q7K4B4).
T2 sequence: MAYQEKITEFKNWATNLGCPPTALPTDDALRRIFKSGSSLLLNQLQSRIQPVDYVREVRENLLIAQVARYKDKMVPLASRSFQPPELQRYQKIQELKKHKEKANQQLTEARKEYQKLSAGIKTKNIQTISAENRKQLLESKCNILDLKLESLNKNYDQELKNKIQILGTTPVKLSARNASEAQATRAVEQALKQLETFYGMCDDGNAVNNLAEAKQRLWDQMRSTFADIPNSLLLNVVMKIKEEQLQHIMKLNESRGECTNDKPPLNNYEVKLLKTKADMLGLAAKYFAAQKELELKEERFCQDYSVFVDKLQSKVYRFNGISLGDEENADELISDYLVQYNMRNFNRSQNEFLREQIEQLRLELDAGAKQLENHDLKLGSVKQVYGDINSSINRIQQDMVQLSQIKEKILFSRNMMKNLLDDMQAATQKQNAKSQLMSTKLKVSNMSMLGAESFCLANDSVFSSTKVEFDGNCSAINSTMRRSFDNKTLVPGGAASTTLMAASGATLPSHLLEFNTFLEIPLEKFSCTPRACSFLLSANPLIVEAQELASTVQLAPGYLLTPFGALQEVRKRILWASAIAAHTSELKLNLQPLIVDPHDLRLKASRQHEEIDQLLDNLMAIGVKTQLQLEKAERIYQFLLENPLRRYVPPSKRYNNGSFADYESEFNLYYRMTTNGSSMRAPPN
The assay can be described thus: cross-linking; Augmin purified through Msd1-GFP on GFP-TRAP-A beads, cross-linked with BS3 (1:5 protein to cross-linker, g/g) on ice for 2 h in C buffer; trypsin, SCX fractions, LC-MS/MS; linkage FDR 5%.

The target in assay [4] is T3, Dgt3 (Drosophila (endogenous in embryos)) (UniProt Q9W2P0).
T3 sequence: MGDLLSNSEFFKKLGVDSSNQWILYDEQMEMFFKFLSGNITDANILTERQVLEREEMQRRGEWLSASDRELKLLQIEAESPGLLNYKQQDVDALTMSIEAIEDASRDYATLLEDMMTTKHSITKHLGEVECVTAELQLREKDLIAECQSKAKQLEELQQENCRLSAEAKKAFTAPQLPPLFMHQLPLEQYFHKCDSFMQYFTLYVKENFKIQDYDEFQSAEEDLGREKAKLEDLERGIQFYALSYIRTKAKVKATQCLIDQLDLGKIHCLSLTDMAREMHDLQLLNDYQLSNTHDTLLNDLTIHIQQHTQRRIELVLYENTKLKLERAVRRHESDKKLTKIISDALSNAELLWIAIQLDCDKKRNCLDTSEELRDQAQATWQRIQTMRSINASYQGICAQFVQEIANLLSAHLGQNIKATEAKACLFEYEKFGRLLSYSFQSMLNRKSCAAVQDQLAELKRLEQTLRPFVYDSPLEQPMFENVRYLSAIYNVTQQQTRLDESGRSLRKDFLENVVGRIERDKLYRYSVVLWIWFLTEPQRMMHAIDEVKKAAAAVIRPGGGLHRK
The assay is described as above.

B1: His-Dgt3^N (domain or fragment, UniProt Q9W2P0 1-350)
chain: MGDLLSNSEFFKKLGVDSSNQWILYDEQMEMFFKFLSGNITDANILTERQVLEREEMQRRGEWLSASDRELKLLQIEAESPGLLNYKQQDVDALTMSIEAIEDASRDYATLLEDMMTTKHSITKHLGEVECVTAELQLREKDLIAECQSKAKQLEELQQENCRLSAEAKKAFTAPQLPPLFMHQLPLEQYFHKCDSFMQYFTLYVKENFKIQDYDEFQSAEEDLGREKAKLEDLERGIQFYALSYIRTKAKVKATQCLIDQLDLGKIHCLSLTDMAREMHDLQLLNDYQLSNTHDTLLNDLTIHIQQHTQRRIELVLYENTKLKLERAVRRHESDKKLTKIISDALSNAE
Take B1: the results for the binding result in the assay with GST-Dgp71WD (Drosophila) [1] and in the assay with GST-Dgp71WD (Drosophila) [2] were “binds weakly” and “binds”, respectively.

B2: His-Dgt5^N (domain or fragment, UniProt Q7K4B4 1-450)
chain: MAYQEKITEFKNWATNLGCPPTALPTDDALRRIFKSGSSLLLNQLQSRIQPVDYVREVRENLLIAQVARYKDKMVPLASRSFQPPELQRYQKIQELKKHKEKANQQLTEARKEYQKLSAGIKTKNIQTISAENRKQLLESKCNILDLKLESLNKNYDQELKNKIQILGTTPVKLSARNASEAQATRAVEQALKQLETFYGMCDDGNAVNNLAEAKQRLWDQMRSTFADIPNSLLLNVVMKIKEEQLQHIMKLNESRGECTNDKPPLNNYEVKLLKTKADMLGLAAKYFAAQKELELKEERFCQDYSVFVDKLQSKVYRFNGISLGDEENADELISDYLVQYNMRNFNRSQNEFLREQIEQLRLELDAGAKQLENHDLKLGSVKQVYGDINSSINRIQQDMVQLSQIKEKILFSRNMMKNLLDDMQAATQKQNAKSQLMSTKLKVSNMSML
Turning to B2, the binding result in the assay with GST-Dgp71WD (Drosophila) [1] is “binds”.

B3: Dgt6 (protein, UniProt Q9VAP2 1-654)
chain: MDRTIIAPWKAEEKEQSEKLHRKLQGLALVHPLPDELRKLIAWDMFLKPNQVAFVHVMHYLFRLLDPAEFKRRFFWPITDKKSEANFRSSTVEYLKHLNEKHQLHWANIKSYLVVMPGGMRFINFLLEFVGFVIQELIKQREKSLGLEAGTPNVSAKVMARQNAVMKEYASSYVVNLEENTALLRDKTQKIRRLMADLSADMGVPEEQLADDGFLDEFEATAALGVERVITQPTERKFDLEASLCGLKEAIDLFQVKQAENNQSKEAVEKALRGMRVLFDCDAVTEGDFYDPLGASKMDALLNGFNRISGTIAEQLDANDHYNESNAFVTTDLQALRVELSQSEVQLNNLLKKLNEPSKKDKGSANASGSARVQTLQPATPRFESVISSKFVSTPPIRIDMGGGGGRNAPVRLALQDDFNGKQFDALSNSLLAPAPPRSARKLKALDQSTGIDLNGTLNRSKINDPMQMLRTIHKNTSKVKAAPQANLSSLGSKWKQMQASFGFDEAPVPGAAVISPQTSPTDPSDPFTPLSGSECTRIERIPRTSENNTSLIAKSAAVIKVLEVSRNVLNLSTSPSGRLDALVPHTESHQQDVAPRLQLNDRTINDSLQLDPDFNIENDKNAFNVSHKFDFDQIGGEDDLQNISDSVLKDIIF
For the molecule B3, the binding entry in assay [3] and in assay [4] was “binds” each time.

B4: His-Dgt6^C (domain or fragment, UniProt Q9VAP2 298-654)
chain: MDALLNGFNRISGTIAEQLDANDHYNESNAFVTTDLQALRVELSQSEVQLNNLLKKLNEPSKKDKGSANASGSARVQTLQPATPRFESVISSKFVSTPPIRIDMGGGGGRNAPVRLALQDDFNGKQFDALSNSLLAPAPPRSARKLKALDQSTGIDLNGTLNRSKINDPMQMLRTIHKNTSKVKAAPQANLSSLGSKWKQMQASFGFDEAPVPGAAVISPQTSPTDPSDPFTPLSGSECTRIERIPRTSENNTSLIAKSAAVIKVLEVSRNVLNLSTSPSGRLDALVPHTESHQQDVAPRLQLNDRTINDSLQLDPDFNIENDKNAFNVSHKFDFDQIGGEDDLQNISDSVLKDIIF
As for B4, the binding result with GST-Dgp71WD (Drosophila) [1] is “binds”.

B5: Dgt3 (protein, UniProt Q9W2P0 1-565)
chain: T3 sequence
Consider B5, for which, in assay [3], the binding result is “binds”.
